# In the supplement of paper PMC7824004:
# This is one part of the list. The data scatter; read single values as rough.
# Tested on: Candida albicans SN425
# Experiment: biofilm OD600 B-score; higher = more biofilm (less inhibition)
# Details: 10 µM; assay detail: High-throughput adherence inhibition optical density biofilm assay with C. albicans SN425 in RPMI-1640/MOPS pH 7.0, 384-well plates. …
# Procedure: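 High-throughput adherence inhibition optical density biofilm assay with C. albicans SN425 in RPMI-1640/MOPS pH 7.0, 384-well plates. Compound (10 µM) was present only during the 90 min adherence step, then washed out, and the biofilm grew 24 h without compound. Biofilm was read as OD600 after removing the media. Scores are the difference from the mean in standard deviations and the plate B-score.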
row,SMILES,biofilm OD600 B-score
1,OC(COCc1ccc(Cl)cc1)CN1CCOCC1 (centres undefined),0.803
2,CS(=O)(=O)Nc1nc2ccc(Cl)cc2s1,2.21
3,N#CC(c1ccc(O)cc1)N1CCOCC1 (centres undefined),1.55
4,O=C(NCc1ccco1)N1CCOCC1,-1.3
5,O=C(CSc1ccccn1)NC1CC1,1.44
6,Cc1csc(NC(=O)c2ccc(F)cc2)n1,1.19
7,CCNC(=O)CN(c1ccc(CC)cc1)S(C)(=O)=O,-0.182
8,Cc1ccc(C)c(CNc2ccc3[nH]ncc3c2)c1,-2.87
9,COc1ccc(C)cc1NC(=O)NC1CCCCC1,-0.678
10,Cc1ncn(C23CC4CC(CC(C4)C2)C3)n1,0.735
11,COc1ccc(/C=C/c2ccc3cccc(O)c3n2)cc1O,1.27
12,NC(=O)c1c(-c2cccs2)csc1N,-4.55
13,CC(=O)NCCOc1ccc(NC(C)=O)cc1,2.29
14,Cc1cc(C)c(S(=O)(=O)Nc2ncccc2C)c(C)c1,1.84
15,Cc1cccc(NC(=O)c2ccc(F)cc2)c1C(=O)O,2.95
16,Cc1nc2ccccc2c(C(=O)O)c1-c1ccccc1,0.213
17,COc1ccc(-c2nnc(-c3ccc(N(C)C)cc3)o2)cc1,3.73
18,O=S(=O)(c1cc(Cl)ccc1Br)N1CCOCC1,0.712
19,CC(=O)NC1=C(N(C)C)C(=O)c2ccccc2C1=O,2.09
20,Cc1ccccc1NC(=O)c1cc(S(N)(=O)=O)ccc1Cl,-2.24
21,C/C(=C\c1ccccc1)CN1CCC(C(=O)N2CCCCC2)CC1,2.62
22,O=C1C2CCCCC2C(=O)N1c1nc2ccccc2s1 (centres undefined),0.48
23,COC1=C(N2CCOCC2)C(=O)c2ccccc2C1=O,0.328
24,Cn1cc(CNC(=O)Nc2ccccc2)cn1,-0.381

# Random excerpt: 2 entries already listed
row,SMILES,biofilm OD600 B-score
20,Cc1ccccc1NC(=O)c1cc(S(N)(=O)=O)ccc1Cl,-2.24
13,CC(=O)NCCOc1ccc(NC(C)=O)cc1,2.29
